Assay results: PMC8616286
Results are given in words; binding and its absence hold for the method and conditions named. For some assays here: Binding seen in cells or lysates may run through a third protein. Some results given as binding are weak or reduced against the parent protein; the word gives no strength. Tags and fused reporters may be left off the sequences shown. Values belong to the binder of their own block, whether it stands above or below them.

Key:
[1] = target: T1, HISTONE … 6 (HDA6), yeast two-hybrid fusion (Arabidopsis thaliana) (UniProt Q9FML2); experiment: two-hybrid; Matchmaker GAL4 system 3, yeast AH109; growth on TDO (SD lacking Trp, Leu, His) / TDO with X-alpha-gal, 30 °C; both orientations of AD and BD
T1 sequence: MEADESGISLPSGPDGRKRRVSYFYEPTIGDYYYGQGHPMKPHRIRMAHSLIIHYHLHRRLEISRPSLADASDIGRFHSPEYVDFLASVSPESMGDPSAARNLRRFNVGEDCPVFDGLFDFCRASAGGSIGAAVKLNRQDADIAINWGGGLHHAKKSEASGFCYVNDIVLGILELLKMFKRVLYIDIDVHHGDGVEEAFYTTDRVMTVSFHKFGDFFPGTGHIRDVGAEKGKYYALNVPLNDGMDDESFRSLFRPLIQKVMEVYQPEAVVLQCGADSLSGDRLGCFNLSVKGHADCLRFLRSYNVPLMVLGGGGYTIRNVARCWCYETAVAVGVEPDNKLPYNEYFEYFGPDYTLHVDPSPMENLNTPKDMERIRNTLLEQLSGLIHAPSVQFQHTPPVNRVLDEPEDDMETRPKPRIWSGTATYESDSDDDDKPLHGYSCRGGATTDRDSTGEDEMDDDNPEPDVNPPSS

[2] = target: T2, HDA6 fused to the N-terminal part of YFP (YN) (Arabidopsis thaliana) (UniProt Q9FML2); experiment: split reporter; BiFC with YN and YC halves of YFP in Arabidopsis protoplasts (PEG transfection); confocal imaging, mCherry with a nuclear localization signal as nuclear marker
T2 sequence: T1 sequence

[3] = target: T3, HDA6-GFP (pEAQ-HDA6-GFP), expressed in tobacco leaves (Arabidopsis thaliana) (UniProt Q9FML2); experiment: co-IP; co-expression in tobacco leaves by Agrobacterium infiltration (36 h); extract in 50 mM Tris-HCl pH 7.4, 150 mM NaCl, 2 mM MgCl2, 1 mM DTT, 20% glycerol, 1% NP-40; GFP-Trap-A beads 4 °C 4 h; anti-FLAG blot
T3 sequence: T1 sequence

[4] = target: T4, GFP-HDA6 (pEAQ-GFP-HDA6), expressed in tobacco leaves (Arabidopsis thaliana) (UniProt Q9FML2); experiment: as above
T4 sequence: T1 sequence

[5] = target: T5, HDA6-GFP (pro35S:HDA6-GFP), in transgenic Arabidopsis plants (Arabidopsis thaliana) (UniProt Q9FML2); experiment: co-IP; transgenic Arabidopsis plants coexpressing 35S:HDA6-GFP and 35S:SIZ1-FLAG; SIZ1-FLAG immunoprecipitated by HDA6-GFP
T5 sequence: T1 sequence

B1: SAP AND MIZ1 DOMAIN-CONTAINING LIGASE1 (SIZ1), yeast two-hybrid fusion (enzyme, UniProt Q680Q4 1-884)
chain: MDLEANCKEKLSYFRIKELKDVLTQLGLSKQGKKQELVDRILTLLSDEQAARLLSKKNTVAKEAVAKLVDDTYRKMQVSGASDLASKGQVSSDTSNLKVKGEPEDPFQPEIKVRCVCGNSLETDSMIQCEDPRCHVWQHVGCVILPDKPMDGNPPLPESFYCEICRLTRADPFWVTVAHPLSPVRLTATTIPNDGASTMQSVERTFQITRADKDLLAKPEYDVQAWCMLLNDKVLFRMQWPQYADLQVNGVPVRAINRPGGQLLGVNGRDDGPIITSCIRDGVNRISLSGGDVRIFCFGVRLVKRRTLQQVLNLIPEEGKGETFEDALARVRRCIGGGGGDDNADSDSDIEVVADFFGVNLRCPMSGSRIKVAGRFLPCVHMGCFDLDVFVELNQRSRKWQCPICLKNYSVEHVIVDPYFNRITSKMKHCDEEVTEIEVKPDGSWRVKFKRESERRELGELSQWHAPDGSLCPSAVDIKRKMEMLPVKQEGYSDGPAPLKLGIRKNRNGIWEVSKPNTNGLSSSNRQEKVGYQEKNIIPMSSSATGSGRDGDDASVNQDAIGTFDFVANGMELDSISMNVDSGYNFPDRNQSGEGGNNEVIVLSDSDDENDLVITPGPAYSGCQTDGGLTFPLNPPGIINSYNEDPHSIAGGSSGLGLFNDDDEFDTPLWSFPSETPEAPGFQLFRSDADVSGGLVGLHHHSPLNCSPEINGGYTMAPETSMASVPVVPGSTGRSEANDGLVDNPLAFGRDDPSLQIFLPTKPDASAQSGFKNQADMSNGLRSEDWISLRLGDSASGNHGDPATTNGINSSHQMSTREGSMDTTTETASLLLGMNDSRQDKAKKQRSDNPFSFPRQKRSNNEQDHQTRHRSLNKICIILCAGKN
binding [1]: binds

B2: SIZ1 fused to the C-terminal part of YFP (YC) (enzyme, UniProt Q680Q4 1-884)
chain: B1 chain
binding [2]: binds

Second part, the binder after the results:

binding [3]: binds
binding [4]: binds
B3: SIZ1-FLAG (pHB-SIZ1-FLAG), expressed in tobacco leaves (enzyme, UniProt Q680Q4 1-884)
chain: B1 chain

binding [5]: binds
B4: SIZ1-FLAG (pro35S:SIZ1-FLAG), in transgenic Arabidopsis plants (enzyme, UniProt Q680Q4 1-884)
chain: B1 chain
